By UniProt entry, the sequences of proteins in these tests, tags left out.
UniProt P53350, whole entry, looked up: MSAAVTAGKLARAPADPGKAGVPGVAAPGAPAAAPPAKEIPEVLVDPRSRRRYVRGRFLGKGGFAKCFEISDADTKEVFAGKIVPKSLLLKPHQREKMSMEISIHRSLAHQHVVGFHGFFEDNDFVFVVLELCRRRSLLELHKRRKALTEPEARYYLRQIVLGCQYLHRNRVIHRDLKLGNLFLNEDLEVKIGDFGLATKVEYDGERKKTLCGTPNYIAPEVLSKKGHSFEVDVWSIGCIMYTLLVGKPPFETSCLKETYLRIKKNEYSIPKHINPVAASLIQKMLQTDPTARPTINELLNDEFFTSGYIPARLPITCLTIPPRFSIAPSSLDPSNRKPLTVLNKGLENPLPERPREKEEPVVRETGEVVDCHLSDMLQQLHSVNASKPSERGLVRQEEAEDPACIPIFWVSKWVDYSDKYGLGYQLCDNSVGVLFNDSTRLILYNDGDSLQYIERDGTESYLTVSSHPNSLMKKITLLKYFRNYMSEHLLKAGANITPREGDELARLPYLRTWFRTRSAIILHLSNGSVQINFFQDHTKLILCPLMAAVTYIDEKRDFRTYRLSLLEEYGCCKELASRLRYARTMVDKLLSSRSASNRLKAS

About 10,000 (2.8%) of roughly 360,000 compounds were called active. Inconclusive means that the source gave no clear call. Such entries were picked first, then a sample of the others. Calls follow the shape of the dose curve; as a rule, active = well fitted inhibition curve with a large enough effect; inconclusive = small, poorly fitted or top-dose-only effect; inactive = flat fitted curve, though single readings scatter. Where the call is inconclusive, the potency comes from a doubtful curve fit.
Each compound was assayed against Serine/threonine-protein kinase PLK1 (Homo sapiens) (UniProt P53350) (assay: qHTS for Inhibitors of PLK1-PDB (polo-like kinase 1 - polo-box domain): Primary Screen). Conditions: Plk1 PBD binding of FITC phosphopeptide, fluorescence polarization.
In the case of `CCCN1CCN(C(=O)Nc2ccc(OCC)cc2)CC1`, the Potency is reported as inconclusive: 8.44 µM [inhibitor, partial curve].
With `COCCNC(=S)N1CCCN(c2nc3cc(C)ccc3cc2C#N)CC1` the Potency was inconclusive: 26.7 µM [inhibitor, single point].
For `COc1ccc(N2C(=O)CC(Sc3nnnn3-c3ccc(F)cc3)C2=O)cc1` (configuration not stated), the Potency was inconclusive: 18.9 µM [inhibitor, single point].
`COc1cc(NC(=O)CSc2ncnc3scc(-c4ccccc4)c23)c(C(=O)O)cc1OC` was tested, and the Potency was inconclusive: 29.9 µM [inhibitor, partial curve].
For `O=C(Nc1ccc(O)cc1C(=O)O)c1cccs1`, the max response, negative = inhibition was inactive: -4.11%.
With `COc1cccc(OC)c1OCCCCn1cnc2ccccc2c1=O` the Potency was inconclusive: 21.2 µM [inhibitor, single point].
With `CC(C)Cc1nnc(NS(C)(=O)=O)s1` the Potency was inconclusive: 21.2 µM [inhibitor, partial curve].
In the case of `Cc1ccc(/C(O)=C2\C(=O)C(=O)N(C)C2c2ccc([N+](=O)[O-])cc2)cc1` (configuration not stated), the max response, negative = inhibition is reported as inactive: -2.95%.
For `Cc1nc2nc(C)n(-c3ccccc3)c2s1`, the Potency was inconclusive: 21.2 µM [inhibitor, partial curve].
For `CCC(C)c1ccccc1OCCOCCN1CCCC1` (configuration not stated), the max response, negative = inhibition was inactive: -2.88%.
With `O=C(CCCSc1nc2ccccc2[nH]1)NCc1ccc(Cl)cc1` the Potency was inconclusive: 8.44 µM [inhibitor, single point].
For `CCOc1ncccc1C(=O)OCC(=O)c1ccc(F)cc1`, the Potency was active: 16.8 µM.
`O=c1oc2ccccc2c(Nc2cc3ccccc3cc2O)c1[N+](=O)[O-]` was tested, and the Potency was inconclusive: 9.47 µM [inhibitor, partial curve].
In the case of `O=C(O)CSc1nc2sc3c(c2c(=O)n1Cc1ccccc1)CCCCC3`, the Potency is reported as inconclusive: 10.6 µM [inhibitor, partial curve, poor fit].
In the case of `O=C1CC(c2cccc(F)c2)c2c(c3ccccc3[nH]c2=O)O1` (configuration not stated), the max response, negative = inhibition is reported as inactive: -8.66%.
For `N#CC1(C#N)CC(C=O)=C(N)C1(C#N)CC(=O)c1ccc(F)cc1` (configuration not stated), the Potency was inconclusive: 16.8 µM [inhibitor, partial curve].
For `CSc1ccc(/C=C(/NC(=O)c2ccccc2)C(=O)NCCCn2ccnc2)cc1`, the max response, negative = inhibition was inactive: -0.0235%.
`Cc1cc(-c2n[nH]c(=S)n2/N=C/C(Cl)=C/c2ccccc2)n[nH]1` was tested, and the Potency was inconclusive: 33.6 µM [inhibitor, single point].
For `Cn1c(=O)c2c(nc(CN3CCCCC3)n2CCCc2ccccc2)n(C)c1=O`, the Potency was inconclusive: 33.6 µM [inhibitor, partial curve, poor fit].
`c1ccc(-c2nnc(SCC3CCCO3)nc2-c2ccccc2)cc1` (configuration not stated) was tested, and the Potency was inconclusive: 15 µM [inhibitor, partial curve].
With `CCCCn1c(NS(=O)(=O)c2ccccc2)c(S(=O)(=O)c2ccc(C)cc2)c2nc3ccccc3nc21` the Potency was active: 26.7 µM.
With `CNC(=S)N(CCc1ccc(S(N)(=O)=O)cc1)C1CC(=O)N(c2ccccc2F)C1=O` (configuration not stated) the Potency was inconclusive: 11.9 µM [inhibitor, partial curve].
With `Cc1ccc(C(=O)NCc2ccccn2)cc1Cl` the Potency was inconclusive: 8.44 µM [inhibitor, single point].
`CC(=O)Oc1ccc(C(=O)[C@H]2[C@H]3C(=O)N(c4cccc5ccccc45)C(=O)[C@H]3[C@@H]3C=CC=NN32)cc1` was tested, and the Potency was active: 42.3 µM.
For `O=C(NC1CCCCC1)C(c1cccc2ccccc12)n1c(=O)c(-c2ccco2)nc2ccccc21` (configuration not stated), the Potency was inconclusive: 21.2 µM [inhibitor, partial curve].
In the case of `COc1cccc(C(=O)C2CN(c3ccccc3)CC2c2ccc(Cl)cc2)c1` (configuration not stated), the max response, negative = inhibition is reported as inactive: -8.73%.
For `COc1ccc(CN(CCO)CCO)cc1[N+](=O)[O-]`, the Potency was inconclusive: 26.7 µM [inhibitor, single point].
`O=C1Nc2ccc(Br)cc2/C1=C/C(=O)c1ccccc1` was tested, and the Potency was inconclusive: 4.23 µM [inhibitor, partial curve].
For `CC(/C=N/NC(=O)c1ccc(CN2c3cccc4cccc(c34)S2(=O)=O)cc1)c1ccccc1` (configuration not stated), the max response, negative = inhibition was inconclusive: -32.5% [inhibitor].
With `C/C(=N\NC(=O)c1ccc(N(C)C)cc1)c1cccnc1` the max response, negative = inhibition was inactive: -12.7%.
With `CCN(CC)C(=O)OCCc1cc2ccccc2c(=O)o1` the max response, negative = inhibition was inactive: -26.8%.
In the case of `C/C(=C\c1ccccc1)C(=O)Nc1ccc(Cl)cn1`, the max response, negative = inhibition is reported as inactive: -3.66%.
For `O=C(COc1ccc([N+](=O)[O-])cc1)Nn1cnnc1`, the Potency was active: 21.2 µM.
For `CC(=O)OCC1=C(C(=O)O)N2C(=O)C(NC(=O)CCn3nc(C(F)(F)F)c(Br)c3C3CC3)C2SC1` (configuration not stated), the Potency was inconclusive: 18.9 µM [inhibitor, partial curve].
`O=C(COC(=O)CCSc1ccccc1)NCc1ccc(F)cc1` was tested, and the Potency was inconclusive: 29.9 µM [inhibitor, single point].
For `CC(C)N(C(=O)CSc1ncnc2sc(-c3ccccc3)cc12)C(C)C`, the max response, negative = inhibition was inactive: -8.73%.
With `COC(=O)c1ccc(Sc2ccccc2NS(=O)(=O)c2ccc(C)cc2)nc1` the Potency was inconclusive: 21.2 µM [inhibitor, partial curve].
With `O=C(Cc1ccccc1)NCc1ccc(-n2cccc2)cc1` the Potency was inconclusive: 29.9 µM [inhibitor, partial curve].
In the case of `Cc1cc(C(=O)N/N=C/c2ccc(OCc3ccccc3)cc2)c(C)o1`, the Potency is reported as inconclusive: 29.9 µM [inhibitor, single point].
For `CN(C)S(=O)(=O)c1cccc(C(=O)C2=C3SC=C(c4ccccc4)N3CC2)c1`, the Potency was inconclusive: 11.9 µM [inhibitor, partial curve].
In the case of `O=c1oc(-c2ccccc2)cc(Cl)c1Cl`, the Potency is reported as active: 10.6 µM.
With `Cc1ccc(NC(=O)CCCN2C(=O)/C(=C/C=C/c3ccccc3)SC2=S)cc1` the Potency was inconclusive: 21.2 µM [inhibitor, partial curve].
In the case of `Cn1c(=NC(=O)c2ccco2)sc2ccccc21`, the Potency is reported as inconclusive: 37.7 µM [inhibitor, single point].
For `CC1CCN(S(=O)(=O)c2ccc(NC(=O)CN3CCN(c4ccccc4)CC3)cc2)CC1`, the max response, negative = inhibition was inactive: 1.03%.
`O=C(Nc1nnc(-c2ccc(Cl)cc2)o1)c1nc2ccccc2s1` was tested, and the max response, negative = inhibition was inconclusive: -31.9% [inhibitor].
With `CCC(C)(C)c1ccc(OCCCC[n+]2ccc(C)cc2)c(C(C)(C)CC)c1` the Potency was inconclusive: 33.6 µM [inhibitor, partial curve].
With `Fc1cccc(NC(=S)NNc2ccccc2)c1` the Potency was inconclusive: 15 µM [inhibitor, partial curve].
`ONC(=Nc1ccc(Cl)cc1)c1ccc(Cl)cc1` was tested, and the max response, negative = inhibition was inactive: -8.2%.
With `CN(CCCN1CCOCC1)C(=O)c1cc(COc2cccc(C(F)(F)F)c2)on1` the max response, negative = inhibition was inactive: -3.73%.
With `CCOc1ccc(C(CC(=O)O)NS(=O)(=O)c2ccc(C)cc2)cc1OC` (configuration not stated) the Potency was active: 21.2 µM.
For `O=C(CSc1cn[nH]n1)Nc1cccc(C(=O)O)c1`, the Potency was active: 4.23 µM.
In the case of `CCCn1c(O)c(CN2CCCC(C)C2)c(C)c(C#N)c1=O` (configuration not stated), the max response, negative = inhibition is reported as inconclusive: -30.6% [inhibitor].
`c1ccc(-c2ccncn2)cc1` was tested, and the max response, negative = inhibition was inactive: -2.86%.
In the case of `CC(NC(=O)C(=O)N1CCCCC1)C(c1cccs1)N1CCN(C)CC1` (configuration not stated), the Potency is reported as inconclusive: 26.7 µM [inhibitor, single point].
`CCc1c(C)sc(NC(=O)Cc2ccccc2C)c1C(=O)N1CCOCC1` was tested, and the Potency was inconclusive: 23.8 µM [inhibitor, partial curve].
For `CC1(C)Cc2nc3sc4c(NCCO)ncnc4c3cc2CS1`, the max response, negative = inhibition was inactive: -8.07%.
In the case of `Cc1ccc(S(=O)(=O)NNC2CC(=O)N(c3ccc(Br)cc3)C2=O)cc1` (configuration not stated), the max response, negative = inhibition is reported as inconclusive: -31.2% [inhibitor].
For `COc1ccc(Nc2nc(N)c(C(=O)c3ccc(F)cc3)s2)cc1`, the max response, negative = inhibition was inactive: -2.57%.
In the case of `CC1(C)CCCN(C(=O)c2coc(=O)c(Br)c2)C1`, the Potency is reported as active: 10.6 µM.
For `CC(CC(=O)NNC(=O)c1cccc(Cl)c1)c1ccccc1` (configuration not stated), the Potency was inconclusive: 29.9 µM [inhibitor, single point].
In the case of `CCOC(=O)C1=C(C)N=c2s/c(=C/c3cccc([N+](=O)[O-])c3O)c(=O)n2C1c1ccc(OC)cc1OC` (configuration not stated), the Potency is reported as active: 29.9 µM.
`COC(=O)c1ccc(CCc2cc(O)c(Br)cc2O)cc1` was tested, and the Potency was inconclusive: 23.8 µM [inhibitor, single point].
In the case of `CCOC(=O)c1oc2nc(C)c3c(c2c1N)CC(C)(C)OC3`, the Potency is reported as active: 11.9 µM.
With `CN(C)C(CNC(=O)C1CCN(S(=O)(=O)c2cc(Cl)ccc2Cl)CC1)Cc1ccccc1` (configuration not stated) the max response, negative = inhibition was inactive: -12.4%.
In the case of `N#Cc1cccc(NC(=O)CSc2ccc3c4c(cccc24)C(=O)c2ccccc2-3)c1`, the Potency is reported as inconclusive: 23.8 µM [inhibitor, single point].
For `Oc1cc(O)c2c(c1)O[C@H](c1ccc(O)c(O)c1)[C@H](O)C2`, the max response, negative = inhibition was inactive: -6.33%.
`Cc1ccc2c(C(=O)CN3CCC4(CC3)OCCO4)c(C)[nH]c2c1` was tested, and the max response, negative = inhibition was inactive: -1.7%.
With `Oc1ccccc1C(=S)N1CCCCCC1` the Potency was inconclusive: 26.7 µM [inhibitor, single point].
`CCC(=O)N1CCN(c2nc(-c3ccc(Cl)cc3)cs2)CC1` was tested, and the Potency was inconclusive: 26.7 µM [inhibitor, single point].
With `O=C(O)C1CCCCC1C(=O)Nc1ccccc1Nc1ccccc1` (configuration not stated) the max response, negative = inhibition was inactive: 1.53%.
`CCn1c(SCC(=O)Nc2nc3ccc(C)cc3s2)nc2c(c1=O)SC(C)C2` (configuration not stated) was tested, and the Potency was inconclusive: 18.9 µM [inhibitor, partial curve].
For `CCOCCOC(=O)C1=C(C)Nc2ccc(C)cc2S1`, the Potency was inconclusive: 26.7 µM [inhibitor, partial curve].

From PubChem BioAssay AID720504 (National Center for Advancing Translational Sciences (NCATS), 2013)
% is scaled to controls: 0 for no effect and ±100 for the full control effect; potency is read from the fitted curve at half-maximal effect.
Also: nearly all actives have a fitted effect of over 65% in size.
For max response, negative = inhibition in this document: series mostly up to about 57 µM.
